No constants are given. Whether binding was seen depends on the method and setting. Binding seen in cells or lysates may run through a third protein. Some binding calls cover weakened binding; strength is not graded here. For part of these data: Where a sequence is shown, tags or fusion partners need not be part of it. Each block holds one molecule with its values, some of them ahead of it.
Columns and labels:
[1] = molecular target: T1, Flag-tagged USP3 (ubiquitin-specific protease 3) (UniProt Q9Y6I4); test: co-IP; GC cells cotransfected with Flag-tagged USP3 and Myc-tagged SUZ12; immunoprecipitation with anti-Flag or anti-Myc antibody, normal mouse IgG as control, Western blot for the other tag
T1 sequence: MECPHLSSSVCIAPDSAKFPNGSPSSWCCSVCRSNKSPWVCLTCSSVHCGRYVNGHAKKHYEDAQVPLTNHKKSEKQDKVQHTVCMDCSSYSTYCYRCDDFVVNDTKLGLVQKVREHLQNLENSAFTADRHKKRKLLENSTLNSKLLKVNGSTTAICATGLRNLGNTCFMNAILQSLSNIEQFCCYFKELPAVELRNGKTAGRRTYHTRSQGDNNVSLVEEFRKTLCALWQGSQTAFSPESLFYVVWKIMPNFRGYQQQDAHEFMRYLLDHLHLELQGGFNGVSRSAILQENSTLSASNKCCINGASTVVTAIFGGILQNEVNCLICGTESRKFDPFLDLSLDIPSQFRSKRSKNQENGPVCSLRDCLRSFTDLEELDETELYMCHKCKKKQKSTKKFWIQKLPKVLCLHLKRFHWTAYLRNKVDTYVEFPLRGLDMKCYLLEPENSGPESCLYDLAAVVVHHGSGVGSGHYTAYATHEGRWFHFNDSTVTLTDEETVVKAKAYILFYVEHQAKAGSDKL

Sequences of proteins named here, by UniProt entry; tags and fusion partners are left off.
UniProt Q15022: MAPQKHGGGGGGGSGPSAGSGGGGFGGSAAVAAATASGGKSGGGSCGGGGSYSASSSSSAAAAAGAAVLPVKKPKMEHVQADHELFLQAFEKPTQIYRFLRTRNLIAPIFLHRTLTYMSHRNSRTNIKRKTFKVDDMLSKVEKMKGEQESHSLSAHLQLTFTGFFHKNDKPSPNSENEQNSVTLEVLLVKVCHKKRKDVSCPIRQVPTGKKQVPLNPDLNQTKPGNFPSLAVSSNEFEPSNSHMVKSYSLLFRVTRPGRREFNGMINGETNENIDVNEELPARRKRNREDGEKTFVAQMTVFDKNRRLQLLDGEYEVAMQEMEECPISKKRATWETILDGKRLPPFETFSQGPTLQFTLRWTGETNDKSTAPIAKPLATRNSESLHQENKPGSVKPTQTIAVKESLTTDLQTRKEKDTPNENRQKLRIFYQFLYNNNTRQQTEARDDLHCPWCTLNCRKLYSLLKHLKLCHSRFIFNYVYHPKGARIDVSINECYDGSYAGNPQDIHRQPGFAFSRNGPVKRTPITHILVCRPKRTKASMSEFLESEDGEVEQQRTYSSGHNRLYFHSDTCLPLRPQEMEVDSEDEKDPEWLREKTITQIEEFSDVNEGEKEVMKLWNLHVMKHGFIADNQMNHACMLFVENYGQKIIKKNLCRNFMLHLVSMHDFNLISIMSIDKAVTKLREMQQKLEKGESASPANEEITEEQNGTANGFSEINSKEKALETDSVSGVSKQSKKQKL

[2] = molecular target: T2, USP3 (ubiquitin-specific protease 3), endogenous (human (endogenous in gastric cancer cell lines)) (UniProt Q9Y6I4); test: co-IP; endogenous proteins; lysates of GC cells immunoprecipitated with an anti-USP3 antibody or normal rabbit IgG, Western blot with an anti-SUZ12 antibody; called reciprocal in the text
T2 sequence: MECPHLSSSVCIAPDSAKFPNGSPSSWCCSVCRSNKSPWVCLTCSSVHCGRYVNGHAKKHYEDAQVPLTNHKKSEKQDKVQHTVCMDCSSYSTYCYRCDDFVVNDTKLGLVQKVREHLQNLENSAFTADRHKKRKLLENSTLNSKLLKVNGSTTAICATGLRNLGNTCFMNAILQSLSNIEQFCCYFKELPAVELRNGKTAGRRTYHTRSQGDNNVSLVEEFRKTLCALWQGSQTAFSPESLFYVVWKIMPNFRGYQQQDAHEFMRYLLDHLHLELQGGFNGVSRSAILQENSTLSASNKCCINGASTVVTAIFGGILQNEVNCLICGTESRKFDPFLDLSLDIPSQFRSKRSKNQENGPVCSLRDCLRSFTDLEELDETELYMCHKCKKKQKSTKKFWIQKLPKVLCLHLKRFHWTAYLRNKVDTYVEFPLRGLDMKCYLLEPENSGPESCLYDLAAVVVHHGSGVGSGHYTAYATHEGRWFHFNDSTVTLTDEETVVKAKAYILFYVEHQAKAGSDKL

[3] = molecular target: Myc-tagged SUZ12 (suppressor of zeste 12 protein homolog) (UniProt Q15022); test: co-IP; GC cells cotransfected with Flag-tagged USP3 and Myc-tagged SUZ12; immunoprecipitation with anti-Flag or anti-Myc antibody, normal mouse IgG as control, Western blot for the other tag

binding [1]: binds
Molecule: Myc-tagged SUZ12 (suppressor of zeste 12 protein homolog) (from UniProt Q15022 1-739)

binding [2]: binds
Molecule: SUZ12 (suppressor of zeste 12 protein homolog), endogenous (from UniProt Q15022 1-739)

binding [3]: binds
B1: Flag-tagged USP3 (ubiquitin-specific protease 3) (enzyme, UniProt Q9Y6I4 1-520)
chain: MECPHLSSSVCIAPDSAKFPNGSPSSWCCSVCRSNKSPWVCLTCSSVHCGRYVNGHAKKHYEDAQVPLTNHKKSEKQDKVQHTVCMDCSSYSTYCYRCDDFVVNDTKLGLVQKVREHLQNLENSAFTADRHKKRKLLENSTLNSKLLKVNGSTTAICATGLRNLGNTCFMNAILQSLSNIEQFCCYFKELPAVELRNGKTAGRRTYHTRSQGDNNVSLVEEFRKTLCALWQGSQTAFSPESLFYVVWKIMPNFRGYQQQDAHEFMRYLLDHLHLELQGGFNGVSRSAILQENSTLSASNKCCINGASTVVTAIFGGILQNEVNCLICGTESRKFDPFLDLSLDIPSQFRSKRSKNQENGPVCSLRDCLRSFTDLEELDETELYMCHKCKKKQKSTKKFWIQKLPKVLCLHLKRFHWTAYLRNKVDTYVEFPLRGLDMKCYLLEPENSGPESCLYDLAAVVVHHGSGVGSGHYTAYATHEGRWFHFNDSTVTLTDEETVVKAKAYILFYVEHQAKAGSDKL
